These results are taken from the supplement of paper PMC12067093, “Discovery and optimisation of a covalent ligand for TRIM25 and its application to targeted protein ubiquitination” (Chemical Science, 2025).

By UniProt entry, the sequences of proteins in these tests, tags left out. Where a name states a change or a piece, a line headed by the entry shows the natural chain unless it says otherwise.
UniProt Q06265, whole entry, looked up: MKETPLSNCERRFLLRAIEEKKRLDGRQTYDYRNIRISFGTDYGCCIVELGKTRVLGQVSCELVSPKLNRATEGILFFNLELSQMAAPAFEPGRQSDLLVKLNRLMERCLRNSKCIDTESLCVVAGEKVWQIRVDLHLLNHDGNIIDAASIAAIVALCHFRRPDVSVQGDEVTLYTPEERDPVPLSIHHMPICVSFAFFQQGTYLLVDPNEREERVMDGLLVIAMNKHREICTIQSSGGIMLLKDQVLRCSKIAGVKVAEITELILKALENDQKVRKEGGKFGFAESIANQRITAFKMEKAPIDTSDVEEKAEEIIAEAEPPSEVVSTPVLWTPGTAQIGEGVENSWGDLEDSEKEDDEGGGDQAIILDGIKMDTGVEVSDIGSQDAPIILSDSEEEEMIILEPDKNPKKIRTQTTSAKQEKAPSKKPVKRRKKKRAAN
UniProt Q96B26, whole entry, looked up: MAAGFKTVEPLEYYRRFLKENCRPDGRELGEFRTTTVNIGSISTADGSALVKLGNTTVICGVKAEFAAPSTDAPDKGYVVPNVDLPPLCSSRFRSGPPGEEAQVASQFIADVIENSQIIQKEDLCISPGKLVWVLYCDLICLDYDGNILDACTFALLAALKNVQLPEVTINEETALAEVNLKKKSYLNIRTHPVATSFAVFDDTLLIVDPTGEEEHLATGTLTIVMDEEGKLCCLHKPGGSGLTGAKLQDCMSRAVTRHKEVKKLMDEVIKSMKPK
UniProt Q96HE7: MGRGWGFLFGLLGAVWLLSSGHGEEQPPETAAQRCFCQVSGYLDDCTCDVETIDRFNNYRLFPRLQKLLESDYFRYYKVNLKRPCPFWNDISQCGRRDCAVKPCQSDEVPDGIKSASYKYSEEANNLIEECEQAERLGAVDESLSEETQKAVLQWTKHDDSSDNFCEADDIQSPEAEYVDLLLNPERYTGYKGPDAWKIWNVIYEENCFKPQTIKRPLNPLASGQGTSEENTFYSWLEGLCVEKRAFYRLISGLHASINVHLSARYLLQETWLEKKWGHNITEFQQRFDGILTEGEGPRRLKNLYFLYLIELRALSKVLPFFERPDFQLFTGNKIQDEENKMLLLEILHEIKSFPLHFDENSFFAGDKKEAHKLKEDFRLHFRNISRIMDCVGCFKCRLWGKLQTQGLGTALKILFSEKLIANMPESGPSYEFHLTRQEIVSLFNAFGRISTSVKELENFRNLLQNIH
UniProt Q96DZ1: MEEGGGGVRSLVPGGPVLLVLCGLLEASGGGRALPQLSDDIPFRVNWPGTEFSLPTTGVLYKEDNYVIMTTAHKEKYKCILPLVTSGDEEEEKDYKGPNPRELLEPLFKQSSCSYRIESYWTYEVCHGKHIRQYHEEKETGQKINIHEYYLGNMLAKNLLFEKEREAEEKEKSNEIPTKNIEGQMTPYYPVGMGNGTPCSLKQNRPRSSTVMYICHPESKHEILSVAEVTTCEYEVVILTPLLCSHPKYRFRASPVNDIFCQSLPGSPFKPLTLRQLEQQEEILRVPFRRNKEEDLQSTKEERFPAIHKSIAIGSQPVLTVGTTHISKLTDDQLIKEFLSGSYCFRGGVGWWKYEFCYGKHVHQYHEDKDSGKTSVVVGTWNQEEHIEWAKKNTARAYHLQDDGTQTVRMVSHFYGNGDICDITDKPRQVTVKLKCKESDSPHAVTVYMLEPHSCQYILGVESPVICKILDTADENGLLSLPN
UniProt Q9BSJ8: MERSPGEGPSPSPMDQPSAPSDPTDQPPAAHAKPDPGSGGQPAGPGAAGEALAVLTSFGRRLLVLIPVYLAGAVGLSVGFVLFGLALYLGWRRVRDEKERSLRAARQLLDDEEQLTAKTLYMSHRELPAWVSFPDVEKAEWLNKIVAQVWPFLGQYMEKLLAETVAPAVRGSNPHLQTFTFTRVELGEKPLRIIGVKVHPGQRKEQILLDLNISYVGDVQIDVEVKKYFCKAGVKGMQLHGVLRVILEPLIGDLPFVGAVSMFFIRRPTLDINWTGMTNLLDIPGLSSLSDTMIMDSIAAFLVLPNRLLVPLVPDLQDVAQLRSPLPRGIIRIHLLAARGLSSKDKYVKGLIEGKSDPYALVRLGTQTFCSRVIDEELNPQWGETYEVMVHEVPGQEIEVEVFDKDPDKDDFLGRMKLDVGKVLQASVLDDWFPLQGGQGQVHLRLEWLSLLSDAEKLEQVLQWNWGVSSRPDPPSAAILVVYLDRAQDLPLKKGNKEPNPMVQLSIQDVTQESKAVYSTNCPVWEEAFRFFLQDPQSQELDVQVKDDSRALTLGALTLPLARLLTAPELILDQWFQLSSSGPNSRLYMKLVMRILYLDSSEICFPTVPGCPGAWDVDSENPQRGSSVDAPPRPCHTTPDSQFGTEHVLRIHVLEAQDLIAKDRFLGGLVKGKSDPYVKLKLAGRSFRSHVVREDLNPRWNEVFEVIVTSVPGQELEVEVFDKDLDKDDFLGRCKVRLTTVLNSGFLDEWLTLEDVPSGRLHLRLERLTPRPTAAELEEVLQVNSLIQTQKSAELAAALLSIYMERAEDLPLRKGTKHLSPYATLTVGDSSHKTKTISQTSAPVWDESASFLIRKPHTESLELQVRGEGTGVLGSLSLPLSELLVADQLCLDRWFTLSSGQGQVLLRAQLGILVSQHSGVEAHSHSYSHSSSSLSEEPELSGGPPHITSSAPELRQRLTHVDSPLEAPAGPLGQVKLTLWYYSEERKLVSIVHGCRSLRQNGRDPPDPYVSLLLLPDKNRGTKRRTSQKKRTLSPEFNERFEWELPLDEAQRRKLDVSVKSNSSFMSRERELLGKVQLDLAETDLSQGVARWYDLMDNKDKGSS
UniProt O94905: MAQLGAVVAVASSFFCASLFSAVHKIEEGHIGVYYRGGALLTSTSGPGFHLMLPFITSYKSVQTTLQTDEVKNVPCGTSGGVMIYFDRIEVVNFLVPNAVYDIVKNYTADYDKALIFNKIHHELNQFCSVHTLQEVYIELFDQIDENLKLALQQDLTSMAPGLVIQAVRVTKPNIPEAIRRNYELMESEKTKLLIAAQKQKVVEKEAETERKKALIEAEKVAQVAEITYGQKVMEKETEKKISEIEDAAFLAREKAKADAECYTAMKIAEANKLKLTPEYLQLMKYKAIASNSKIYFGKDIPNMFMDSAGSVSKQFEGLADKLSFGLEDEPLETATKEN
UniProt Q01469, whole entry, looked up: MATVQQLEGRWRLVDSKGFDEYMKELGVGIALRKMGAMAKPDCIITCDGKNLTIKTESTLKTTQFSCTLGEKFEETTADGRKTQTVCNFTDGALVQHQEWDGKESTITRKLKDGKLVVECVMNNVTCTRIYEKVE
UniProt Q15910, whole entry, looked up: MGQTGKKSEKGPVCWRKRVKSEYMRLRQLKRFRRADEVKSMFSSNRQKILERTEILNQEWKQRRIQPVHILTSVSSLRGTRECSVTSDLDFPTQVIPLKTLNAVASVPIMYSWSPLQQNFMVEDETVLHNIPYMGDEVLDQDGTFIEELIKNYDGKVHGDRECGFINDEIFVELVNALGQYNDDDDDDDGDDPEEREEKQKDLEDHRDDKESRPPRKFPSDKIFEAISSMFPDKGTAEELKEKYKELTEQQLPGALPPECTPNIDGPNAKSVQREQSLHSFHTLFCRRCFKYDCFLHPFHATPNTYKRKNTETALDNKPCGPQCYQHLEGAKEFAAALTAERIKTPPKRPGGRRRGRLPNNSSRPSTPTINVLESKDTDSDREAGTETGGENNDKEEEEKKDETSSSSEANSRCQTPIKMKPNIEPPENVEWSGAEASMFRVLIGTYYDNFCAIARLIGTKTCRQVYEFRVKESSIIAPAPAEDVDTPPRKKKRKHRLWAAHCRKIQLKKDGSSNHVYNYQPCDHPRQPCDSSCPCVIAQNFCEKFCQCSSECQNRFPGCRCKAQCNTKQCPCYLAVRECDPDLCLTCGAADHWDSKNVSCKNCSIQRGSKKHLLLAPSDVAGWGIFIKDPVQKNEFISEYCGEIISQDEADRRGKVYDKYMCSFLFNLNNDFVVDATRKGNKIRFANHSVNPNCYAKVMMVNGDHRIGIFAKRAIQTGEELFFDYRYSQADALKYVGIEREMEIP
UniProt Q9Y3B2, whole entry, looked up: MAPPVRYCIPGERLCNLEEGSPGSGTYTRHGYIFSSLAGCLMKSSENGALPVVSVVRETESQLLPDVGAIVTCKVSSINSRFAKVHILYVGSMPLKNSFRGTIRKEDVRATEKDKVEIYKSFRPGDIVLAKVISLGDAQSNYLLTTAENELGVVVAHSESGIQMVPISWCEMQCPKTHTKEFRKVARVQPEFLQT
UniProt Q9HBU6: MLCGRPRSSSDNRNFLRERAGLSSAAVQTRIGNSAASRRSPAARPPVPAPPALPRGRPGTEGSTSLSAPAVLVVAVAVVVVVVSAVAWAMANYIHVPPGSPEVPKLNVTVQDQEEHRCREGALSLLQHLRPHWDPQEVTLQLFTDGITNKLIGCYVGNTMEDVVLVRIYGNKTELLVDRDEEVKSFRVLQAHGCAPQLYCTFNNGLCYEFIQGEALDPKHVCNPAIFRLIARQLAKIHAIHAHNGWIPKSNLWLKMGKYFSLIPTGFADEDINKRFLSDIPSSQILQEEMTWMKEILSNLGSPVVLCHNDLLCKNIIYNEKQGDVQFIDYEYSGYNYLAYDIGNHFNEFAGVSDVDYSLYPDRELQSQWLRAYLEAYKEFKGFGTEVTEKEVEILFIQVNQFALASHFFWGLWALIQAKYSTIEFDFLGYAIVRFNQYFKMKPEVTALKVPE
UniProt Q96A65: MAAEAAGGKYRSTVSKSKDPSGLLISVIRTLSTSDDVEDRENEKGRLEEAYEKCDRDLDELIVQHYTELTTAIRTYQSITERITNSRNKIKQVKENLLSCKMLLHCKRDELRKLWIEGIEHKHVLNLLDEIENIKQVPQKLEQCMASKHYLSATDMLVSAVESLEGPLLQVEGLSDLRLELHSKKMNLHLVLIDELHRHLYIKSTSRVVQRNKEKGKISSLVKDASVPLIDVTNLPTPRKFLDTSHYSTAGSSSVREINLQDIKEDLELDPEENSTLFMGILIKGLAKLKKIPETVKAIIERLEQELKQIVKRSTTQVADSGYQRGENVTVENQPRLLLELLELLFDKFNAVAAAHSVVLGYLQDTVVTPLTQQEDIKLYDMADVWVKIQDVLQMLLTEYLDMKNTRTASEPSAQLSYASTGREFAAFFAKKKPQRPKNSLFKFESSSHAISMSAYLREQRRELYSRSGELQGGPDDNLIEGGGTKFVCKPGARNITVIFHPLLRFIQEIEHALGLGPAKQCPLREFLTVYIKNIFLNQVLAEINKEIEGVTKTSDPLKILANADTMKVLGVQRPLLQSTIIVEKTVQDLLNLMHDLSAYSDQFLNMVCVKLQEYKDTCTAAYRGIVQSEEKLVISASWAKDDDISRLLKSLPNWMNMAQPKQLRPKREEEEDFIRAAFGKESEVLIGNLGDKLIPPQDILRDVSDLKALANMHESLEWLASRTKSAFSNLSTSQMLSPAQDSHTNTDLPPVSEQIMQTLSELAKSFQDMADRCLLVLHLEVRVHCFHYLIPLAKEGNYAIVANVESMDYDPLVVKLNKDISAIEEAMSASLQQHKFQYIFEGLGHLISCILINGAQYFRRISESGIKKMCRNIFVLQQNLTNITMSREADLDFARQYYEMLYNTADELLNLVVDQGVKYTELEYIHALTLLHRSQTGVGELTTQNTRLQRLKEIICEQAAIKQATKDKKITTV
UniProt Q9BS26: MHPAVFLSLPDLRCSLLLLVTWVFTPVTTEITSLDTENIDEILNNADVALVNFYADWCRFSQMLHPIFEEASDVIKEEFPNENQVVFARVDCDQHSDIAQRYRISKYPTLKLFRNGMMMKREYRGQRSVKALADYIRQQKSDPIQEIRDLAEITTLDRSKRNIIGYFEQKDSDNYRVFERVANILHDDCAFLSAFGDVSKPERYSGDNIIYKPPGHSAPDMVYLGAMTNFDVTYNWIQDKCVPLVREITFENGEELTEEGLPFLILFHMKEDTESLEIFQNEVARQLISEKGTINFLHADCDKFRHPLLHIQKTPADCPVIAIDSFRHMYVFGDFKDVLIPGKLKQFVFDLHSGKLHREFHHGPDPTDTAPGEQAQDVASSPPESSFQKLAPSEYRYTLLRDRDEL
UniProt O95571: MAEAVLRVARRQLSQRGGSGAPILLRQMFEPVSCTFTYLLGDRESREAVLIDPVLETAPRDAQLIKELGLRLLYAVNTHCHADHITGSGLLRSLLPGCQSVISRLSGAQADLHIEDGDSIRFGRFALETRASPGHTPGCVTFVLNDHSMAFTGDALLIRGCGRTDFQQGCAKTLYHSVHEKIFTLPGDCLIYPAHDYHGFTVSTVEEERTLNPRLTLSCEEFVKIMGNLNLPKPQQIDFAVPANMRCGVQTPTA
UniProt P84090, whole entry, looked up: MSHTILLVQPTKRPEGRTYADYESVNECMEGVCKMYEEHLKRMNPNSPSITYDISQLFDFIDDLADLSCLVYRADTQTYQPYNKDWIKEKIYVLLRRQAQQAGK

The list shows a part of the results.

Compound in this assay: CC1Cc2ccccc2N1C(=O)C1CCCN(C1)C(=O)CCl (mixture of isomers) [TRIM25 ligand 11 (diastereomer mixture)]
In words: probe-labelled cysteine peptide fold change vs DMSO (competition) (log2 fold change); higher = less target engagement (more negative = stronger competition). The note with it: THP-1, incubation time: 4 h.
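Note: competitive chemoproteomic profiling in live THP-1 cells with an iodoacetamide desthiobiotin (IA-DTB) probe, comparing probe-labelled peptide intensities in compound-treated cells against DMSO-treated controls.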

For the target “EXOSC9_Q06265_9_ETPLSNCER (UniProt Q06265)”, the “probe-labelled cysteine peptide fold change” value (10 µM) is -0.104 and the “probe-labelled cysteine peptide fold change” value (50 µM) is -0.0793.
The corresponding values for “FAF1_Q9UNN5_120_NVDVVLEDTCTVGEIK (UniProt Q9UNN5)” are 0.0123 and 0.0932.
For “ETF1_P62495_127_KVNIDFEPFKPINTSLYLCDNK (UniProt P62495)”, the “probe-labelled cysteine peptide fold change” value by setting is: (10 µM) 0.0876; (50 µM) 0.00153.
Regarding “F2_P00734_129_SGIECQLWR (UniProt P00734)”, the “probe-labelled cysteine peptide fold change” value by setting is: (10 µM) 0.468; (50 µM) 0.193.
As to “EXOSC8_Q96B26_125_EDLCISPGK (UniProt Q96B26)”, the “probe-labelled cysteine peptide fold change” value by setting is: (10 µM) 0.411; (50 µM) 0.358.
For “ERO1A_Q96HE7_85_RPCPFWNDISQCGR (UniProt Q96HE7)” the same measures were 0.182 and 0.183.
On to “ERLEC1_Q96DZ1_421_MVSHFYGNGDICDITDKPR (UniProt Q96DZ1)”, for which the “probe-labelled cysteine peptide fold change” value was 0.0492 (10 µM) and 0.173 (50 µM).
For “FAM102B_Q5T8I3_53_EVVQANCVR (UniProt Q5T8I3)”, the “probe-labelled cysteine peptide fold change” value was determined as 0.0172 (10 µM) and 0.158 (50 µM).
The corresponding values for “EXOC2_Q96KP1_859_LEICALR (UniProt Q96KP1)” are -0.0264 and -0.00412.
For “ERCC3_P19447_342_SGVIVLPCGAGK (UniProt P19447)” the same measures were -0.0422 and -0.00988.
On to “FAM120A_Q9NZB2_192_ENGFHGLVAYDSDYALCNIPYYFSAHALK (UniProt Q9NZB2)”, for which the “probe-labelled cysteine peptide fold change” value was -0.0966 (10 µM) and -0.0728 (50 µM).
For “ESYT1_Q9BSJ8_995_KLVSIVHGCR (UniProt Q9BSJ8)” the same measures were 0.0752 and -0.0351.
As for “EXOSC8_Q96B26_60_LGNTTVICGVK (UniProt Q96B26)”, the “probe-labelled cysteine peptide fold change” value (10 µM) was found to be 0.0322 and the “probe-labelled cysteine peptide fold change” value (50 µM) worked out at 0.0231.
The corresponding values for “ERLIN2_O94905_262_ADAECYTAMK (UniProt O94905)” are 0.0253 and -0.0671.
“FABP5_Q01469_43+47_MGAMAKPDCIITCDGK (UniProt Q01469)”: the “probe-labelled cysteine peptide fold change” value was -0.0476 (10 µM) and -0.166 (50 µM).
On to “ERCC4_Q92889_803_ILWCPSPHATAELFEELK (UniProt Q92889)”, for which the “probe-labelled cysteine peptide fold change” value (10 µM) was -0.0243 and the “probe-labelled cysteine peptide fold change” value (50 µM) came out at 0.0315.
Take “EZH2_Q15910_503_LWAAHCR (UniProt Q15910)”: the “probe-labelled cysteine peptide fold change” value by setting is: (10 µM) -0.019; (50 µM) -0.121.
“EXOSC1_Q9Y3B2_73_ETESQLLPDVGAIVTCK (UniProt Q9Y3B2)”: the “probe-labelled cysteine peptide fold change” value is -0.279 (10 µM) and -0.13 (50 µM).
For “ETNK1_Q9HBU6_307+313_EILSNLGSPVVLCHNDLLCK (UniProt Q9HBU6)”, the “probe-labelled cysteine peptide fold change” value runs as follows: (10 µM) -0.0363; (50 µM) -0.124.
The corresponding values for “ERO1A_Q96HE7_104_DCAVKPCQSDEVPDGIK (UniProt Q96HE7)” are -0.0614 and -0.103.
Take “ERCC5_P28715_550_NETHAEVLEQQNELCPYESK (UniProt P28715)”: the “probe-labelled cysteine peptide fold change” value is -0.154 (10 µM) and -0.474 (50 µM).
Take “EXOSC10_Q01780_612_LENVLFGPHDCSHAPPDGYPIIPTSGSVPVQK (UniProt Q01780)”: the “probe-labelled cysteine peptide fold change” value reads like this: (10 µM) 0.353; (50 µM) 0.274.
Turning to “F2_P00734_407_WVLTAAHCLLYPPWDK (UniProt P00734)”, the “probe-labelled cysteine peptide fold change” value is, setting by setting: (10 µM) 0.631; (50 µM) 0.154.
The corresponding values for “ERI3_O43414_258_VMLPGQCQYLGLPVADYFK (UniProt O43414)” are -0.024 and 0.109.
In the case of “EXOC4_Q96A65_786_VHCFHYLIPLAK (UniProt Q96A65)”, the “probe-labelled cysteine peptide fold change” value reads like this: (10 µM) 0.178; (50 µM) 0.434.
Take “EXOC5_O00471_254_NDIFEDAGILCQR (UniProt O00471)”: the “probe-labelled cysteine peptide fold change” value is, setting by setting: (10 µM) 0.0965; (50 µM) 0.0639.
For “ERC1_Q8IUD2_1034_LYIGHLTTLCHDRDPLILR (UniProt Q8IUD2)” the same measures were -0.118 and -0.181.
The corresponding values for “FAAP100_Q0VG06_309+311_TEPQAAEAAENFLPDEDVHCDCLVAFGHHGR (UniProt Q0VG06)” are 0.0559 and -0.328.
The corresponding values for “ERP44_Q9BS26_189_VANILHDDCAFLSAFGDVSK (UniProt Q9BS26)” are -0.259 and 0.212.
Turning to “EXTL3_O43909_400_LDQVLVEFTCK (UniProt O43909)”, the “probe-labelled cysteine peptide fold change” value reads like this: (10 µM) 0.0434; (50 µM) 0.174.
For “EURL_Q9NYK6_112_DLDSDSECSK (UniProt Q9NYK6)” the same measures were 0.0235 and -0.0278.
As to “ETHE1_O95571_170_TDFQQGCAK (UniProt O95571)”, the “probe-labelled cysteine peptide fold change” value is, setting by setting: (10 µM) -0.0879; (50 µM) -0.135.
Take “ESCO2_Q56NI9_389_HFGATVCK (UniProt Q56NI9)”: the “probe-labelled cysteine peptide fold change” value by setting is: (10 µM) -0.00137; (50 µM) 0.0314.
With “EXOSC1_Q9Y3B2_40_HGYIFSSLAGCLMK (UniProt Q9Y3B2)”, the “probe-labelled cysteine peptide fold change” value is, setting by setting: (10 µM) -0.15; (50 µM) -0.096.
The corresponding values for “ERCC2_P18074_155_AQYQHDTSLPHCR (UniProt P18074)” are 0.132 and -0.0603.
“EXT2_Q93063_85_LPADSPIPERGDLSCR (UniProt Q93063)”: the “probe-labelled cysteine peptide fold change” value (10 µM) was -0.113 and the “probe-labelled cysteine peptide fold change” value (50 µM) came to 0.0474.
For “ERP44_Q9BS26_92_VDCDQHSDIAQR (UniProt Q9BS26)” the same measures were 0.0242 and 0.118.
For “ERH_P84090_28+33_TYADYESVNECMEGVCK (UniProt P84090)” the same measures were -0.179 and -0.359.
For the target “EZH2_Q15910_324_NTETALDNKPCGPQCYQHLEGAK (UniProt Q15910)”, the “probe-labelled cysteine peptide fold change” value reads like this: (10 µM) -0.0466; (50 µM) 0.0993.
Take “FAH_P16930_396_FLLDGDEVIITGYCQGDGYR (UniProt P16930)”: the “probe-labelled cysteine peptide fold change” value by setting is: (10 µM) 0.0287; (50 µM) -0.218.
For “EXOC4_Q96A65_957_EIICEQAAIK (UniProt Q96A65)” the same measures were -0.0169 and -0.0542.
Take “FABP5_Q01469_43+47_KMGAMAKPDCIITCDGK (UniProt Q01469)”: the “probe-labelled cysteine peptide fold change” value is -0.248 (10 µM) and -0.398 (50 µM).
